Measured values taken from PubChem BioAssay AID504648 (National Center for Advancing Translational Sciences (NCATS), 2011).
Screen size: about 390,000 compounds; about 610 (0.16%) were called active. Inconclusive means that the source gave no clear call. Such entries were picked first, then a sample of the others. Calls come from the whole dose curve; as a rule, active = well fitted inhibition curve with a large enough effect; inconclusive = small, poorly fitted or top-dose-only effect, or effect the other way, or another doubt; inactive = no such curve, though single readings can be large or run the other way. Where the call is inconclusive, the potency comes from a doubtful curve fit.

assay: Nrf2 qHTS screen for inhibitors: counterscreen for cytotoxicity; conditions: A549 ARE-Fluc cells, CellTiter-Fluor viability, 18-24 h; series mostly up to 46 µM
How it was run: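 A549 ARE_Fluc cells in 5% FBS OPTI-MEM were exposed to compounds in concentration-response for 18-24 h at 37 deg C. Viability was read by CellTiter-Fluor fluorescence (Ex 405/Em 525) after 30 min, before the luciferase read.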
Potency is the fitted concentration of half-maximal effect.

Compound	Potency
CN(C(=O)c1cccc(NC(=O)Cc2ccc(NC(=O)C3CCN(C(=O)C4CCCCC4)CC3)cc2)c1)C1CCCC1	inactive
CCn1c(=O)c(=O)[nH]c2c(=O)oc3ccc(S(=O)(=O)Nc4ccc(OC)cc4)cc3c21	inconclusive: 18.4 µM [falling, partial curve, poor fit]
Cc1ccc(NC(=O)Cn2c(=O)n(CCCCC(=O)NCc3ccccc3Cl)c(=O)c3ccccc32)cc1C	inactive
COc1ccccc1NC(=O)CN1CCCN(S(=O)(=O)c2ccc(Br)cc2)CC1	inactive
Cc1nc2ccccn2c(=O)c1NC(=O)c1ccc(C(F)(F)F)cc1	inconclusive: 23.1 µM [activator, partial curve, poor fit]
O=C(c1ccc(Cl)cc1)N1CCN(c2ccnc3cc(Cl)ccc23)CC1	inconclusive: 29.1 µM [falling, single point]
CCOc1ccccc1N(CC(=O)N1CCC(C)CC1)S(=O)(=O)c1ccc(C)cc1	inconclusive: 9.2 µM [falling, partial curve, poor fit]
O=C(Nc1nnc(S(=O)(=O)N2CCCc3ccccc32)s1)c1cccc(F)c1	inactive
Cc1c(N=Nc2ccc(N(C)C)cc2)c(=O)n(-c2ccccc2)n1C	active: 18.4 µM
Cc1ccccc1-n1c(C)cc(/C=N/Nc2ccc([N+](=O)[O-])cn2)c1C	inconclusive: 23.1 µM [falling, single point]
COc1ccc2c(Sc3ccccc3)c(C(=O)NCCCN3CCCCC3)[nH]c2c1	inconclusive: 20.6 µM [falling, single point]
CCOC(=O)c1cc(C(C)=O)c(=O)[nH]c1C	inactive
COc1ccc(-c2nc(C#N)c(N3CC(C)OC(C)C3)o2)cc1OC (configuration not stated)	inactive
CCN(CC)CCN(C(=O)c1cc2c(ccc3ccccc32)oc1=O)c1nc2cc3c(cc2s1)OCCO3	inconclusive: 18.4 µM [falling, partial curve, poor fit]
O=C(O)CC/C(=N\NC(=O)c1ccc(F)cc1)c1ccc(Br)cc1	inconclusive: 0.731 µM [activator, full curve, poor fit]
CNCCC(Oc1ccc(C(F)(F)F)cc1)c1ccccc1 (configuration not stated)	inactive
CC(=O)c1ccc(N2C(=O)N(Cc3ccccc3C#N)c3ccccc3S2(=O)=O)cc1	inactive
CC1CCC(C(C)C)C(OC(=O)Cn2c(-c3ccc(Br)cc3)[n+](C)c3ccccc32)C1 (configuration not stated)	inconclusive: 16.4 µM [falling, single point]
Cc1ccc(-n2ncc(C(=O)Nc3ccc4c(c3)OCO4)c2C2CCN(C(=O)OC(C)(C)C)CC2)c(C)c1	inconclusive: 29.1 µM [falling, single point]
Cc1c(C(=O)Nc2ccc(F)c(Cl)c2)oc2ccc(S(=O)(=O)N(C)C3CCCCC3)cc12	inactive
OCC1OC(n2cnc3c(/C=C(\O)c4ccccc4)ncnc32)C(O)C1O (configuration not stated)	inconclusive: 20.6 µM [falling, partial curve, poor fit]
COc1ccc(C)cc1NC(=O)CSc1nnc(COc2ccccc2)n1Cc1ccco1	inactive
O=C1CCc2cc(S(=O)(=O)Nc3cc(F)cc(Cl)c3)c(F)cc2N1	inconclusive: 32.6 µM [activator, partial curve, poor fit]

3 entries from above, reformatted.
Compound,Potency
Cc1ccc(-n2ncc(C(=O)Nc3ccc4c(c3)OCO4)c2C2CCN(C(=O)OC(C)(C)C)CC2)c(C)c1,"inconclusive: 29.1 µM [falling, single point]"
Cc1c(C(=O)Nc2ccc(F)c(Cl)c2)oc2ccc(S(=O)(=O)N(C)C3CCCCC3)cc12,inactive
OCC1OC(n2cnc3c(/C=C(\O)c4ccccc4)ncnc32)C(O)C1O (configuration not stated),"inconclusive: 20.6 µM [falling, partial curve, poor fit]"

At a glance, 2 of the compounds above.
Compound	Potency
OCC1OC(n2cnc3c(/C=C(\O)c4ccccc4)ncnc32)C(O)C1O (configuration not stated)	inconclusive: 20.6 µM [falling, partial curve, poor fit]
COc1ccc(C)cc1NC(=O)CSc1nnc(COc2ccccc2)n1Cc1ccco1	inactive

(cont.)

Compound	Potency
CCCN1C(C(=O)c2ccccc2)=C(OC(=O)c2ccc(OC)cc2)c2ccccc2S1(=O)=O	inconclusive: 23.1 µM [falling, single point]
CC(C)(C)c1cnnn1-c1ccc(/C=N/Nc2ccc([N+](=O)[O-])cc2)cc1	active: 16.4 µM
C=CCn1c(SCC(=O)Nc2cccc(S(N)(=O)=O)c2)nc2sc(C)c(C)c2c1=O	inconclusive: 18.4 µM [falling, partial curve, poor fit]
COc1ccc(-n2c(=O)c3ccccc3n(Cc3cccc(C)c3)c2=O)cc1OC	inconclusive: 2.06 µM [falling, partial curve, poor fit]
O=c1c(N2CCc3ccccc3C2)csc2ccc(Cl)cc12	inactive
COC(=O)COc1cccc2c(=O)n(CC(=O)NCc3ccc(F)cc3)ccc12	inactive
Cc1cccc(N2CCN(S(=O)(=O)c3cc(-c4cc(C)no4)ccc3C)CC2C)c1 (configuration not stated)	inactive
CCn1c(=O)sc2cc(NS(=O)(=O)c3ccc(C)cc3)ccc21	inactive
CC1=C(C(=O)OCCOc2ccccc2)C(c2ccsc2)NC(=O)N1C (configuration not stated)	inactive
O=[N+]([O-])c1c(NCCO)cc(N2CCC3(CC2)OCCO3)c2nonc12	active: 9.2 µM
Fc1ccc(CSc2ncnc3scc(-c4ccccc4)c23)cc1	inconclusive: 23.1 µM [activator, partial curve, poor fit]
COc1cc(/C=N/NC(=O)C(=O)/C=C2\NC(C)(C)Cc3ccccc32)ccc1O	inconclusive: 18.4 µM [falling, partial curve, poor fit]
CCN1CCN(c2nc(Nc3ccc(C)c(C)c3)nc(N)c2[N+](=O)[O-])CC1	inconclusive: 29.1 µM [falling, partial curve, poor fit]
Cc1ccc(C(=O)COC(=O)COc2ccccc2[N+](=O)[O-])s1	inactive
N#Cc1cnc2c(-c3ccccc3)c(-c3ccccc3)nn2c1N	inactive
COc1cc(/C=C2\SC(=S)N(NS(=O)(=O)c3ccccc3)C2=O)cc(OC)c1OC	inconclusive: 10.3 µM [falling, partial curve, poor fit]
O=c1c2c(n3cnnc3n1C1CCCCC1)-c1ccccc1CC21CCCCC1	inconclusive: 6.51 µM [activator, single point]
CCCCC(=O)Nc1nn(CC(C)C)c2nc3ccccc3cc12	inactive
CCN(CC)S(=O)(=O)c1ccc(C)c(NC(=O)CN2CCN(C)CC2)c1	inconclusive: 29.1 µM [activator, single point]
Cc1nn(Cc2c(Cl)cccc2Cl)c(C)c1NC(=O)c1cn(-c2ccccc2)nc1-c1ccccc1	active: 13 µM
CCOC(=O)/C(C#N)=C\C=C1C=CN(C)C=C1	inconclusive: 20.6 µM [falling, partial curve, poor fit]
c1ccc2c(c1)nc1sccn12	inconclusive: 20.6 µM [activator, partial curve, poor fit]
CCN=c1scc(C)n1/N=C/c1cc(Br)c(O)c(Br)c1	inconclusive: 29.1 µM [falling, single point]

Compound	Potency
CCC1c2ccc(C)n2CCN1C(=O)Nc1ccccc1C(=O)OC (configuration not stated)	inactive
OC(CNC1CCCC1)COc1ccc(-c2ccccc2)cc1 (configuration not stated)	inconclusive: 29.1 µM [activator, partial curve, poor fit]
COC(=O)c1ccc(/C=C2\SC(=S)N(CCCC(=O)NCCCN3CCOCC3)C2=O)cc1	inconclusive: 16.4 µM [falling, single point]
COc1ccc(OCc2nnc(SCC(=O)N3CCCc4ccccc43)n2-c2ccc(C)cc2)cc1	inconclusive: 6.51 µM [falling, full curve]
CN(CC(=O)Nc1ccc(Cl)c(C(F)(F)F)c1)C(=O)c1cc(-c2ccncc2)nc2ccccc12	inconclusive: 18.4 µM [falling, partial curve, poor fit]
O=C(NCCCO)c1ccc2nc(-c3ccco3)c(-c3ccco3)nc2c1	inconclusive: 32.6 µM [falling, partial curve, poor fit]
C=CC[C@@H](CC(=O)N(CCO)Cc1ccccc1)C(=O)N[C@H](COC(=O)[C@@H](CC=C)CC(=O)OC(C)(C)C)C(C)(C)C	inconclusive: 32.6 µM [activator, partial curve, poor fit]
CCOC(=O)c1c(-c2ccc(F)cc2)csc1/N=C/N(C)C	inconclusive: 29.1 µM [falling, single point]
CSc1nc(-c2ccccc2)c(-c2ccccc2)[nH]1	inactive
Cc1cccc(C(=O)Nc2scc(CC(C)C)c2C(=O)O)c1	inconclusive: 29.1 µM [falling, partial curve, poor fit]
Cc1ccc(-c2nc(C=Nc3ccc(O)cc3)c(O)o2)cc1	inconclusive: 29.1 µM [falling, partial curve, poor fit]
CC(=O)Nc1nc2n(n1)C(c1ccc(F)cc1)C=C(c1ccccc1)N2 (configuration not stated)	inconclusive: 17.8 µM [activator, single point]
COc1ccccc1NC(=S)N1CC(C)(C)C1=O	inactive
CCC(=O)N1CCN(c2ccc(NC(=O)c3cc4ccccc4o3)cc2Cl)CC1	inconclusive: 29.1 µM [falling, single point]
Cc1cc(C)nc(NC(=NCCc2c[nH]c3ccc(Cl)cc23)NC(=O)c2ccccc2C)n1	inactive
Oc1ccc(N=Nc2ccc3c(c2)OCCO3)c2cccnc12	inconclusive: 18.4 µM [falling, single point]
Cc1cccc(-n2c(Cc3ccccc3)nnc2SCc2nc(-c3cccs3)no2)c1	inconclusive: 29.1 µM [falling, single point]
C=CS(=O)(=O)c1ccc(Oc2ccc(S(=O)(=O)C=C)cc2)cc1	inconclusive: 20.6 µM [falling, single point]
N#C/C(=C/c1ccc(Sc2nc3ccccc3[nH]2)o1)c1cccc(Br)c1	inconclusive: 29.1 µM [falling, single point]
N#Cc1cc(C(=O)c2ccccc2OCC(=O)Nc2ccccc2Cl)cn(C2CCCCC2)c1=O	inactive
COn1c2c(c3c4nonc4ccc31)CCCC2	inconclusive: 32.6 µM [activator, partial curve, poor fit]
